Values quoted from earlier work as cited in US10912838B2, “Carrier for use in delivering drug, conjugate, composition comprising same, and method for administrating same” (THE UNIVERSITY OF TOKYO, priority 2013, dated 2021).
Counter-ions that a name gives are not always drawn.

Conditions: literature value

accumulation in the brain, of the total dose per g of the brain: 0.13%
SMILES: COc1cc2c(cc1OC)C(=O)C(CC1CCN(Cc3ccccc3)CC1)C2 (stereo not shown) [donepezil hydrochloride]
